The values that follow come from article PMC12678476.

Sequences of proteins named here, by UniProt entry; tags and fusion partners are left off.
UniProt Q96Q89: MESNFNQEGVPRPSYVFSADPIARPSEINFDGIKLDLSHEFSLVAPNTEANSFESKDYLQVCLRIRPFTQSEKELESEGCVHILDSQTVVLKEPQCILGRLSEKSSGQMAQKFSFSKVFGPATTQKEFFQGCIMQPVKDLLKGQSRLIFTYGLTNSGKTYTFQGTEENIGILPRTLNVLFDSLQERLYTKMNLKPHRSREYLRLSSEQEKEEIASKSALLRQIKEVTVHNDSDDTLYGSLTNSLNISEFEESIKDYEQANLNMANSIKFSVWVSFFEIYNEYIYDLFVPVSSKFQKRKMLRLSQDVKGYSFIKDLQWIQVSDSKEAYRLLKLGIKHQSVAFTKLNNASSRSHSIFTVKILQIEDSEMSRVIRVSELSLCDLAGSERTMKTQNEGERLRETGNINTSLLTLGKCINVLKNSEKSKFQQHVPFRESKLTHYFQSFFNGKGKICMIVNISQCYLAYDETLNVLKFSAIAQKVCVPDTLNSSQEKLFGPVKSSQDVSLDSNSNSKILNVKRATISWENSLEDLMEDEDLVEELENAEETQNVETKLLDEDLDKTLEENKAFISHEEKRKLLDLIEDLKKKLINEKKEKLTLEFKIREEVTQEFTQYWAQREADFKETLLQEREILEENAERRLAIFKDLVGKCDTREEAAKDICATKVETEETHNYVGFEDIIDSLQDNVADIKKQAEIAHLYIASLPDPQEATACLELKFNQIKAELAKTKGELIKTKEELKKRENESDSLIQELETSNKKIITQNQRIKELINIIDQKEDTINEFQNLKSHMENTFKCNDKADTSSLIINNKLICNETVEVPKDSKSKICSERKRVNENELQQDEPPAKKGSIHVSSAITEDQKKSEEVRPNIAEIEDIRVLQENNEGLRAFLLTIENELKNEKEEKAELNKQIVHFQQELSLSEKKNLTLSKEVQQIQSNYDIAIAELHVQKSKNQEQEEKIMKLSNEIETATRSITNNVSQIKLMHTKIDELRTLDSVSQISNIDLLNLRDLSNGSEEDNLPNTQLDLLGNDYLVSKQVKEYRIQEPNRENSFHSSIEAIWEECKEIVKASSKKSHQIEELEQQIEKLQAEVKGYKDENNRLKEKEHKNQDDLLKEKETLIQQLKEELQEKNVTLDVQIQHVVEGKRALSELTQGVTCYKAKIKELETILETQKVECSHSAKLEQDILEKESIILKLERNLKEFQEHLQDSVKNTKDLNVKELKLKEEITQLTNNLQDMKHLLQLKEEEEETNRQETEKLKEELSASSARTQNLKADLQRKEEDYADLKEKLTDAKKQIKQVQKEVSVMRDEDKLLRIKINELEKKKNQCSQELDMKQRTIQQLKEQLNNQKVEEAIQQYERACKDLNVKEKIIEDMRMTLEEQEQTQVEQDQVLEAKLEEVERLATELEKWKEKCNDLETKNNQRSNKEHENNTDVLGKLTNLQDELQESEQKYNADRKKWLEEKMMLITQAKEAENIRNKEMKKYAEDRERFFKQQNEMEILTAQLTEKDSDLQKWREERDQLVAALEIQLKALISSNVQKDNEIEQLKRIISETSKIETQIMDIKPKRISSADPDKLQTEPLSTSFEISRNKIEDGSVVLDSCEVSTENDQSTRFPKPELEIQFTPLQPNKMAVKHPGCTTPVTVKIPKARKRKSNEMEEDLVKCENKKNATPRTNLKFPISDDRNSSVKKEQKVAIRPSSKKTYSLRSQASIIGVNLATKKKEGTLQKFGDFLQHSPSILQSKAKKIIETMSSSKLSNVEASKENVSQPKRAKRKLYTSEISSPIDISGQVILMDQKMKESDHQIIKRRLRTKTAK
UniProt P69905: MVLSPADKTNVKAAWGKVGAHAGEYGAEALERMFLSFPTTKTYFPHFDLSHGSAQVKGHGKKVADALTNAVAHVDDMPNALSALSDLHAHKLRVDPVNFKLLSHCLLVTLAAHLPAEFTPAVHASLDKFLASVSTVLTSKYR

This assay has as its target T1, tripartite motif-containing protein 10α (TRIM10α), endogenous (human (endogenous in HUDEP-2)) (UniProt Q9UDY6).
T1 sequence: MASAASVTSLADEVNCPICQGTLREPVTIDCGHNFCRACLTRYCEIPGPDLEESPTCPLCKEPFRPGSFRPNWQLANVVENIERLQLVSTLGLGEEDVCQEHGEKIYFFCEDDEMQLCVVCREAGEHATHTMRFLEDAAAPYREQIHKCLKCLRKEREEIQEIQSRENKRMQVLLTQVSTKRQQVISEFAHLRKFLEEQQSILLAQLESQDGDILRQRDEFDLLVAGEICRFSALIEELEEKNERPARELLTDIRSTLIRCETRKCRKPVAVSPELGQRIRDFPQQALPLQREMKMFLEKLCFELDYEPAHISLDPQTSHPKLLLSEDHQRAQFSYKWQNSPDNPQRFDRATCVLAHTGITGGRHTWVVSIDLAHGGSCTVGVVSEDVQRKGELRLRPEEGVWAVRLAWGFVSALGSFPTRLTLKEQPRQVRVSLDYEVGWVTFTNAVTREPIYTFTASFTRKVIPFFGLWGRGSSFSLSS
Kind of assay: affinity purification with mass spectrometry; co-immunoprecipitation with anti-TRIM10α antibody from HUDEP-2 cells at differentiation days 0, 8 and 12; SDS-PAGE, silver staining, bands excised, tandem mass spectrometry.

These are yes or no findings as the source states them, for the method shown. Binding seen in cells or lysates may run through a third protein. These calls come from enrichment with a bait or labelling near it, and not all partners need be listed.

For “KIF20B, a kinesin-6 family member, endogenous (from UniProt Q96Q89 1-1820)”, the binding entry is recorded as “binds”.

Take “Hb subunit alpha (HbA), endogenous (from UniProt P69905 1-142)”: the binding result is “binds”.
